Assay results published in patent US20260176701A1 (BRIGHAM AND WOMEN S HOSPITAL, published 2026).
No constants are given. Whether binding was seen depends on the method and setting. Some entries that bind do so weakly or less than the wild type.

Sequences of proteins named here, by UniProt entry; tags and fusion partners are left off. A change or cut given only in a name is not applied to a line headed by its entry.
UniProt Q9UN81: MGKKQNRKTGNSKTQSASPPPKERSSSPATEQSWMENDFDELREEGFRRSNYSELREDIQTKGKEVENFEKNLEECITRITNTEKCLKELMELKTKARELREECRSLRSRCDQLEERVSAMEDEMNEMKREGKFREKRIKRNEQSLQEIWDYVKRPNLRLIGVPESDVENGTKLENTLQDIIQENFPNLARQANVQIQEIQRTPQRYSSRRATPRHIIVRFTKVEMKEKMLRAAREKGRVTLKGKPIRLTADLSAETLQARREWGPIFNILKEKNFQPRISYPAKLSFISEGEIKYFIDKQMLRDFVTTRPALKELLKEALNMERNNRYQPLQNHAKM

Columns and labels:
[1] = biological target: recombinant human ORF1p (LINE-1 open reading frame 1 protein, L1RP) (human) (UniProt Q9UN81); test: SPR, ORF1p immobilized
[2] = biological target: recombinant human ORF1p (LINE-1 open reading frame 1 protein, L1RP) (human) (UniProt Q9UN81); test: Simoa sandwich, recombinant ORF1p at 40 pg/mL in diluent buffer, signal/background heat map; capture on the x axis, detector on the y axis
[3] = biological target: recombinant human ORF1p (LINE-1 open reading frame 1 protein, L1RP) (human) (UniProt Q9UN81); test: Simoa sandwich calibration curves, panels titled capture/detector; AEB against recombinant ORF1p (axis 0.001-1000 pg/mL, log-log); dotted line = limit of detection
[4] = biological target: recombinant human ORF1p (LINE-1 open reading frame 1 protein, L1RP) (human) (UniProt Q9UN81); test: large-volume (500 uL) MOSAIC sandwich calibration curve, 34H7 capture / Nb5-5LL detector; average molecules per bead against ORF1p concentration (log-log); dashed line = limit of detection
[5] = biological target: recombinant human ORF1p (LINE-1 open reading frame 1 protein, L1RP) (human) (UniProt Q9UN81); test: SPR; Simoa with lysine-biotinylated detector
[6] = biological target: recombinant human ORF1p (LINE-1 open reading frame 1 protein, L1RP) (human) (UniProt Q9UN81); test: ELISA screen of conditioned medium, then modified Simoa with Nb-5 or 4H1 beads and ORF1p

Binder	binding [1]	binding [2]	also measured
anti-ORF1 Nb dimer 6 Nb5-Nb5 long linker (MT997) (bispecific antibody, Homodimeric tandem nanobody, long linker of 56 residues; also called Nb 5-5 long; Nb5-5LL) QVQLVESGGDLVQAGGSLRLSCAVSGGTSSNYGMGWFRQAPGKEREFVSSISWSGSRTLYSDSVKGRFTISRDNAKNTVDLQMNSLKPEDTAVYYCTAVREYRDYPQRDNFDYWGQGTQVTVSGGGGSGGGGSGGGGSGGGGSEAAAKEAAAKEAAAKSGGGGSGGGGSGGGGSGGGGSMAQVQLVESGGDLVQAGGSLRLSCAVSGGTSSNYGMGWFRQAPGKEREFVSSISWSGSRTLYSDSVKGRFTISRDNAKNTVDLQMNSLKPEDTAVYYCTAVREYRDYPQRDNFDYWGQGTQVTVSHHHHHH	binds	binds	binding [3]: binds; binding [4]: binds
anti-ORF1 Nb dimer 2 Nb2-Nb2 (MT992) (VHH, Homodimeric tandem nanobody, short (GGGGS)x4 linker; also called Nb 2-2; Nb2-2 pMT992) DVQLVESGGGLVQAGGSLRLSCAASGRTDDIYTMGWFRQGPGKEREFVAVISWSITRRSSITHYADSVKGRFTISGENAENTVYLQMNTLKPEDTAVYYCAAKTGYSGSMSSYQDYDSWGQGTQVTVSGGGGSGGGGSGGGGSGGGGSMADVQLVESGGGLVQAGGSLRLSCAASGRTDDIYTMGWFRQGPGKEREFVAVISWSITRRSSITHYADSVKGRFTISGENAENTVYLQMNTLKPEDTAVYYCAAKTGYSGSMSSYQDYDSWGQGTQVTVSHHHHHH	binds	–	binding [5]: binds
anti-ORF1 Nb dimer 3 Nb5-Nb5 (MT993) (bispecific antibody, Homodimeric tandem nanobody, short linker; also called Nb 5-5; Nb5-5) QVQLVESGGDLVQAGGSLRLSCAVSGGTSSNYGMGWFRQAPGKEREFVSSISWSGSRTLYSDSVKGRFTISRDNAKNTVDLQMNSLKPEDTAVYYCTAVREYRDYPQRDNFDYWGQGTQVTVSGGGGSGGGGSGGGGSGGGGSMAQVQLVESGGDLVQAGGSLRLSCAVSGGTSSNYGMGWFRQAPGKEREFVSSISWSGSRTLYSDSVKGRFTISRDNAKNTVDLQMNSLKPEDTAVYYCTAVREYRDYPQRDNFDYWGQGTQVTVSHHHHHH	binds	binds	–
55A6 (antibody, V domains shown) VH: QSLEESGGDLVKPGASLTLTCTASGFSFINNNHICWVRQAPGKGLEWIACIYAGSNGYTYYTNWAKGRFTISKTSSTTVTLQMTSLTAADTATYFCARVPYAGYVNYGYAFFNLWGPGTLVTVSS VL: AAVVTQTPSPVSAPVGGTVTISCQSSQSVYRTNDLAWYQQKPGQPPKLLIYWASKLAIGVPSRFKGSGSGTQFTLTISGVQCDDAATYYCLGGYDDDGDLNTFGGGTEVVVN	–	binds	binding [6]: binds

Further lines, with some results ahead:

binding [1]	binding [2]	Binder	also measured
binds	–	anti-ORF1 Nb trimer Nb5-Nb5-Nb5 (MT996) (bispecific antibody, Homotrimeric tandem nanobody; also called Nb 5-5-5) QVQLVESGGDLVQAGGSLRLSCAVSGGTSSNYGMGWFRQAPGKEREFVSSISWSGSRTLYSDSVKGRFTISRDNAKNTVDLQMNSLKPEDTAVYYCTAVREYRDYPQRDNFDYWGQGTQVTVSGGGGSGGGGSGGGGSGGGGSMAQVQLVESGGDLVQAGGSLRLSCAVSGGTSSNYGMGWFRQAPGKEREFVSSISWSGSRTLYSDSVKGRFTISRDNAKNTVDLQMNSLKPEDTAVYYCTAVREYRDYPQRDNFDYWGQGTQVTVSGGGGSGGGGSGGGGSGGGGSMAQVQLVESGGDLVQAGGSLRLSCAVSGGTSSNYGMGWFRQAPGKEREFVSSISWSGSRTLYSDSVKGRFTISRDNAKNTVDLQMNSLKPEDTAVYYCTAVREYRDYPQRDNFDYWGQGTQVTVSHHHHHH	–
binds	–	anti-ORF1 Nb dimer 4 Nb5-Nb1 (MT994) (bispecific antibody, Heterodimeric tandem nanobody, short linker; also called Nb 5-1; Nb5-1 pMT994) QVQLVESGGDLVQAGGSLRLSCAVSGGTSSNYGMGWFRQAPGKEREFVSSISWSGSRTLYSDSVKGRFTISRDNAKNTVDLQMNSLKPEDTAVYYCTAVREYRDYPQRDNFDYWGQGTQVTVSGGGGSGGGGSGGGGSGGGGSMADVQLVESGGGLVQAGESLRLSCAASGRTLSSLNMAWFRQVPGKERDFVSLISRSGSTDYVHSVRGRFTISRDNAKNTVYLEMNSLKPEDTAVYYCAADDNYNGRYPFRDEYEYWGQGTQVTVSHHHHHH	–
binds	–	anti-ORF1 Nb dimer 5 Nb5-Nb2 (MT995) (bispecific antibody, Heterodimeric tandem nanobody, short linker; also called Nb 5-2; Nb5-2 pMT995) QVQLVESGGDLVQAGGSLRLSCAVSGGTSSNYGMGWFRQAPGKEREFVSSISWSGSRTLYSDSVKGRFTISRDNAKNTVDLQMNSLKPEDTAVYYCTAVREYRDYPQRDNFDYWGQGTQVTVSGGGGSGGGGSGGGGSGGGGSMADVQLVESGGGLVQAGGSLRLSCAASGRTDDIYTMGWFRQGPGKEREFVAVISWSITRRSSITHYADSVKGRFTISGENAENTVYLQMNTLKPEDTAVYYCAAKTGYSGSMSSYQDYDSWGQGTQVTVSHHHHHH	binding [5]: binds
